In the test the target is T1, Schizosaccharomyces pombe TATA-binding protein (S. pombe) (UniProt P17871).
T1 sequence: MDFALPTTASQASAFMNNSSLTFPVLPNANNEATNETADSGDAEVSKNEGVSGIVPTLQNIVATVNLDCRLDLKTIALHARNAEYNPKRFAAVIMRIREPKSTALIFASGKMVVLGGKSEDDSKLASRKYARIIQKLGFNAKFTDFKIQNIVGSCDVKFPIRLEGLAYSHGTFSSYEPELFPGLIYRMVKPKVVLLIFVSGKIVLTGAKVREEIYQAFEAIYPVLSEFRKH
The test can be described thus: native gel or EMSA; TBP, TFIIB (20 ng each), TFIIF (20 or 40 ng) and RNAPII (100 ng) on 32P-labelled Ad-MLP TATA box probe; 20 mM HEPES pH 7.9, 50 mM KCl, 5 mM MgCl2; 15 min at 30 °C; both purified. (A gel shift assay detects complexes by their altered migration in electrophoresis.)

This is an account of results in paper PMC9225179, “RNA Polymerase II Transcription in Pneumocystis: TFIIB from Pneumocystis carinii Can Replace the Transcriptional Functions of Fission Yeast Schizosaccharomyces pombe TFIIB In Vivo and In Vitro” (International Journal of Molecular Sciences, 2022).

These are yes or no findings as the source states them, for the method shown. A result given as binding can be weak or reduced; the word gives no strength. Tags and fused reporters may be left off the sequences shown.

For the substance Pneumocystis carinii TFIIB, the binding result is “binds”.
